Source: PubChem BioAssay AID504834 (National Center for Advancing Translational Sciences (NCATS), 2011)
“And” between values parts separate entries of the source, which are not always exact repeats. Identical values can stand only once. The whole screen tested about 320,000 compounds, of which about 22,000 (6.9%) were called active. This list was built around the results that the source calls inconclusive (neither active nor inactive); the mix of calls is not that of the screen. Calls come from the whole dose curve; as a rule, active = well fitted inhibition curve with a large enough effect; inconclusive = small, poorly fitted or top-dose-only effect, or another doubt; inactive = no such curve, though single readings can be large or run the other way. Potencies of inconclusive entries are doubtful fits and often do not repeat.

assay: Primary qHTS for delayed death inhibitors of the malarial parasite plastid, 96 hour incubation; details: P. falciparum luciferase reporter growth; series mostly up to 28.7 µM
In short: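 Plates of compound plus infected erythrocytes (2% hematocrit, 0.05% parasitemia final) incubate 96 hours, 37 C, 5% CO2. Detection reagent added; reduced luminescence from the parasites' luciferase reporter flags inhibition.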
% is set by controls: 0 for no effect and ±100 for the full control effect; potency is the fitted concentration of half-maximal effect.

Row | SMILES | Potency | activity change, negative = inhibition
1 | Brc1ccc(C2=CC(c3cccs3)n3ncnc3N2)cc1 (stereo unspecified) | inactive | –
2 | CC1(C)Cc2cccc(OCC(=O)NCCc3ccc(S(N)(=O)=O)cc3)c2O1 | inconclusive: 10.4 µM [inhibitor, single point] | –
3 | CCC(COC(=O)Nc1cccc(C)c1C)NC(=O)OCC(C)C (stereo unspecified) | inconclusive: 13.1 µM [inhibitor, single point] | –
4 | O=C(CN1C(=O)NC(c2ccccc2)(c2ccccc2)C1=O)NC1CCCC1 | inconclusive: 2.62 µM [inhibitor, full curve, poor fit] | –
5 | COc1ccc(C2CC(c3cccs3)=NN2C(=O)CSc2nnnn2C)cc1OC (stereo unspecified) | active: 11.7 µM | –
6 | COCCOC(=O)CSc1ncccc1-c1nc2cc(C)c(C)cc2[nH]1 | inactive | –
7 | COC(=O)Cc1ccc(NC(=S)NN2CCOCC2)cc1 | inconclusive: 18.5 µM [inhibitor, single point] | –
8 | CN1CCN(/N=C/c2nc(-c3ccc(Cl)cc3)n3ccccc23)CC1 | inactive | –
9 | O=C(/C=C/c1ccc(N2CCC(c3ccccc3)=N2)cc1)c1ccccc1 | inactive | –
10 | C=CCN(CC=C)c1nc2ccccc2nc1C(C#N)C(=O)OCCOC (stereo unspecified) | active: 6.57 µM | –
11 | O=C(COc1ccccc1Cl)Nc1ccc(N2CCCC2)cc1 | inactive | –
12 | COc1ccc(CCn2c(O)cc3nn(-c4nc5ccccc5s4)c(=O)c-3c2C)cc1 | inconclusive: 2.33 µM [inhibitor, full curve] | –
13 | Cc1cc(C)nc(/N=C2/NC(=O)CS2)n1 | inconclusive: 4.15 µM [inhibitor, single point] | –
14 | O=C(CN1CCOc2ccccc21)NC1CCN(Cc2ccccc2)CC1 | inconclusive: 9.28 µM [inhibitor, partial curve, poor fit] | –
15 | Cc1nn2c(-c3ccncc3)nnc2c2ccccc12 | inconclusive: 13.1 µM [inhibitor, partial curve, poor fit] | –
16 | Cc1cc(C)c2nc(NNC(=O)c3ccc(S(=O)(=O)N4CCCCC4)cc3)sc2c1 | active: 4.65 µM | –
17 | COC(=O)CN(c1ccccc1F)S(=O)(=O)c1ccc(C)cc1 | inconclusive: 13.1 µM [inhibitor, partial curve, poor fit] | –
18 | COc1ccc(OCc2cc(C(=O)N[C@H]3CCCCNC3=O)no2)c(Cl)c1 | inactive | –
19 | CC1=NN(c2nc3ccccc3[nH]2)C(=O)/C1=C/N(C)C | inconclusive: 10.4 µM [inhibitor, single point] | –
20 | NNC(=S)NCCc1ccccc1 | inconclusive: 18.5 µM [inhibitor, single point] | –
21 | CN(C)S(=O)(=O)c1ccc(N2CCCC2)c(C(=O)Nc2ccc(F)cc2F)c1 | inconclusive: 10.4 µM [inhibitor, partial curve] | –
22 | Cc1nc2ccc(NC(=O)N3CCN(c4ccccn4)CC3)cc2s1 | inconclusive: 18.5 µM [inhibitor, single point] | –
23 | CN(C)[C@@H](Cc1ccccc1)c1ccccc1 | inactive | –
24 | O=C(COC(=O)/C=C/c1ccco1)NCCc1ccccc1 | inactive | –

Row | SMILES | Potency | activity change, negative = inhibition
25 | NC(=O)CSc1nnc(Cn2cnc3ccccc32)o1 | inactive | –
26 | CCOc1ccc2[nH]c(=O)c(CN(Cc3ccc(C)cc3)C(=O)N3CCCC3)cc2c1 | inconclusive: 4.15 µM [inhibitor, single point] | –
27 | O=S(=O)(Nc1ncn[nH]1)c1ccc(Cl)cc1 | – | inactive: 4.09% [at 5.75 µM]
28 | CC(=O)Nc1cccc(NC=C(C#N)C#N)c1 | inactive | –
29 | COc1ccc(C(=O)NCc2nnc(SCC(=O)N3CCc4ccccc43)n2C2CCCCC2)cc1 | inconclusive: 1.85 µM [inhibitor, partial curve, poor fit] | –
30 | Cc1cccc(CC(=O)NC2CCN(C)CC2)c1 | inconclusive: 1.47 µM [inhibitor, partial curve, poor fit] | –
31 | Cc1c(CC(=O)NC(C)C)c(=O)oc2cc3c(cc12)CCC(C)(C)O3 | inactive | –
32 | CC1CC(C)CN(C(=O)C(Cc2ccccc2)NC(=O)c2ccccc2)C1 (stereo unspecified) | inconclusive: 10.4 µM [inhibitor, single point] | –
33 | COc1ccc(C(=O)N(Cc2ccco2)C(C(=O)NC2CCCC2)c2ccc(O)cc2)cc1OC (stereo unspecified) | inconclusive: 9.28 µM [inhibitor, single point] | –
34 | Cc1ccc(-n2c(-c3ccccc3)nnc2-c2cccs2)cc1 | inactive | –
35 | COc1ccc(-c2nnc(SCC(=O)O)n2C)cc1OC | inconclusive: 1.47 µM [inhibitor, full curve, poor fit] | –
36 | COc1cccc2sc(N(CCCN(C)C)C(=O)C(c3ccccc3)c3ccccc3)nc12 | inconclusive: 11.7 µM [inhibitor, single point] | –
37 | CCC(=O)NC1CC2CCCC(C1)N2Cc1ccc(C)cc1 (stereo unspecified) | inconclusive: 18.5 µM [inhibitor, single point] | –
38 | CCc1nn(CC(=O)NCCCN2CCN(CC)CC2)c(=O)c2cc3occc3n12 | inconclusive: 18.5 µM [inhibitor, single point] | –
39 | Cc1cccc2cc(C(c3nnnn3Cc3ccccc3)N3CCN(C)CC3)c(=O)[nH]c12 (stereo unspecified) | inconclusive: 0.0233 µM [inhibitor, full curve, poor fit] | –
40 | CCCc1c(O)nc(SCCN(CCC)CCC)[nH]c1=O | inconclusive: 16.5 µM [inhibitor, single point] | –
41 | O=c1c2ccccc2c(-c2ccccc2)nn1Cc1c(Cl)cccc1Cl | inconclusive: 13.1 µM [inhibitor, partial curve, poor fit] | –
42 | Cc1cc(Br)ccc1NCc1ccccn1 | inactive | –
43 | CC(=O)N1c2ccc(S(=O)(=O)N(C)CC(=O)N3CCCC3)cc2CC1C (stereo unspecified) | inconclusive: 18.5 µM [inhibitor, single point] | –
44 | Fc1ccc(-c2nn3c(C4COc5ccccc5O4)nnc3s2)cc1 (stereo unspecified) | inconclusive: 18.5 µM [inhibitor, partial curve, poor fit] | –
45 | CCS(=O)(=O)c1nc(S(=O)(=O)c2ccc(C)cc2)c(NCCCN2CCOCC2)s1 | inconclusive: 18.5 µM [inhibitor, single point] | –
46 | COc1cc(/C=N/N2CCN(Cc3ccccc3)CC2)cc(OC)c1OC(C)=O | inactive | –
47 | Cc1oc(-c2cc(F)ccc2F)nc1CN1CCN(c2cnccn2)CC1 | inconclusive: 18.5 µM [inhibitor, single point] | –
48 | CC1CCN(c2ccc(NC(=O)c3ccccc3[N+](=O)[O-])cc2)CC1 | – | inactive: -32.4% [at 5.75 µM]

Row | SMILES | Potency | activity change, negative = inhibition
49 | O=C(Nc1ccccc1)c1c(F)c(F)c(F)c(F)c1F | inconclusive: 18.5 µM [inhibitor, single point] | –
50 | Cn1c(=O)n(C)c2cc([N+](=O)[O-])c(N3CCN(S(=O)(=O)c4ccc5ccccc5c4)CC3)cc21 | inconclusive: 10.4 µM [inhibitor, partial curve] | –
51 | N#CCN1CCC(c2cc(-c3ccco3)n[nH]2)CC1 | inconclusive: 5.86 µM [inhibitor, partial curve] | –
52 | Cc1ccsc1/C=N/n1cnc2sc(C)c(C)c2c1=O | inactive | –
53 | Cc1ccc(-c2csc(NC(=O)CCNC(=O)c3ccccc3Cl)n2)cc1 | inconclusive: 11.7 µM [inhibitor, partial curve] | –
54 | CCOc1ccc(Cl)cc1CN1CCOCC1 | inactive | –
55 | CC1CN(C(=O)COC(=O)CSc2ccc([N+](=O)[O-])cc2)CC(C)O1 (stereo unspecified) | inactive | –
56 | O=C(OCCN1CCOCC1)c1cccnc1 | inconclusive: 4.65 µM [inhibitor, partial curve] and inconclusive: 2.08 µM [inhibitor, partial curve, poor fit] | –
57 | COc1cccc(OC)c1OCCOc1ccccc1OC(C)C | inconclusive: 18.5 µM [inhibitor, single point] | –
58 | Oc1ccc(/C=N/N2CCN(C3c4ccccc4-c4ccccc43)CC2)cc1O | inconclusive: 18.5 µM [inhibitor, single point] | –
59 | CCC(C)(C)n1nnnc1C(c1ccc2ncccc2c1)N1CCCC(C)C1 (stereo unspecified) | active: 10.4 µM | –
60 | CCC1CCCCN1C(=O)Nc1cc(Cl)ccc1OC (stereo unspecified) | inconclusive: 0.0052 µM [inhibitor, full curve, poor fit] | –
61 | CCN(CC)CCCN=Cc1c(O)n(-c2ccccc2F)c(=O)[nH]c1=O | inconclusive: 18.5 µM [inhibitor, single point] | –
62 | CCOc1ccccc1/C=N/NC(=O)c1cccc(S(=O)(=O)N(CC)CC)c1 | inactive | –
63 | CCCCCCNS(=O)(=O)c1nc2nc(C)cc(C)n2n1 | inactive | –
64 | Cc1ccc(OCC(=O)NCCc2nc3ccccc3[nH]2)c(C)c1 | inconclusive: 10.4 µM [inhibitor, partial curve, poor fit] | –
65 | COc1ccc(-c2cc(C(F)(F)F)nc(SCC(=O)Nc3ccc4c(c3)OCO4)n2)cc1OC | inconclusive: 5.22 µM [inhibitor, partial curve, poor fit] | –
66 | CN(C)S(=O)(=O)c1ccc(C(=O)N2CC(=O)Nc3ccc(F)cc3C2c2ccc(F)cc2)cc1 (stereo unspecified) | inactive | –
67 | CC(C(=O)N1c2ccccc2CC1C)N1CCN(S(=O)(=O)c2ccccc2F)CC1 (stereo unspecified) | inconclusive: 10.4 µM [inhibitor, single point] | –
68 | Cc1sc2nc[nH]c(=O)c2c1-c1ccc(F)cc1 | inconclusive: 13.1 µM [inhibitor, single point] | –
69 | [O-]/C(=C(\C(=S)Nc1ccc(SC(F)F)cc1)[n+]1ccccc1)c1cc(Cl)ccc1Cl | inactive | –
70 | CCOC(=O)C1CCN(S(=O)(=O)c2ccc3[nH]c(=O)c(=O)[nH]c3c2)CC1 | inactive | –
71 | COc1ccc(CCC(=O)N2CCN(S(=O)(=O)c3cccc(Cl)c3)CC2)cc1 | inconclusive: 8.28 µM [inhibitor, partial curve, poor fit] | –
